The source of these data is the supplement of paper PMC11150407.

Out of some 2,100 compounds screened, about 180 (8.6%) showed an effect of 50% or more. This is one part of the list.

The subject of the test is MOLM1 and UCSD/AML1 (averaged). The test is described as follows: cell viability relative to DMSO control (POC); higher = less growth inhibition. The note with it: 1 µM; 72 h. As to the method:
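Primary viability screen in the 3q26 EVI1-high AML cell lines MOLM1 and UCSD/AML1 (1.5e3 cells/well, 384-well), compounds at 1 uM for 72 h. ATP CellTiter-Glo read-out given as percent of viable cells over DMSO control (POC), averaged over duplicates. DMSO was the negative control and 5 uM etoposide the positive control. This mapping covers the MicroSource Spectrum and Selleck anticancer libraries (drug names).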
For `Cc1ccc(S(=O)(=O)C=CC#N)cc1`, the cell viability is 1.01%. With `O=C(O)c1ccccc1-c1c2cc(I)c(=O)c(I)c-2oc2c(I)c(O)c(I)cc12`, the cell viability was 77.6%.

Consider `CCc1ccc(CCOc2ccc(CC3SC(=O)NC3=O)cc2)nc1` (stereo unspecified), for which the cell viability stood at 96.1%. With `CCc1ccc(CCOc2ccc(CC3SC(=O)NC3=O)cc2)nc1` (stereo unspecified) [Pioglitazone (Actos)], the cell viability turned out to be 94.3%. `CC(=O)C1=C(O)C=C2Oc3c(C(C)=O)c(O)c(C)c(O)c3C2(C)C1=O` (stereo in doubt): the cell viability was 113%. Regarding `CO[C@H]1/C=C/O[C@@]2(C)Oc3c(C)c(O)c4c(O)c(c(/C=N/N5CCN(C)CC5)c(O)c4c3C2=O)NC(=O)/C(C)=C\C=C\[C@H](C)[C@H](O)[C@@H](C)[C@@H](O)[C@@H](C)[C@H](OC(C)=O)[C@@H]1C`, the cell viability is 103%.

With `Cc1c(Cl)cccc1Nc1ccccc1C(=O)O`, the cell viability was 90.7%.

As to `CCCSc1ccc2[nH]c(NC(=O)OC)nc2c1`, the cell viability was found to be 12.4%. The result for `C[C@@H]1CC[C@H]2C(C)(C)[C@H]3C[C@@]12CC[C@@]3(C)O` reads 105%; that for `CC[C@H]1OC(=O)[C@H](C)[C@@H](O[C@H]2C[C@@](C)(OC)[C@@H](O)[C@H](C)O2)[C@H](C)[C@@H](O[C@@H]2O[C@H](C)C[C@H](N(C)C)[C@H]2O)[C@](C)(O)C[C@@H](C)C(=O)[C@H](C)[C@@H](O)[C@]1(C)O`, 98.2%; that for `CC1=C(/C=C/C(C)=C/C=C/C(C)=C/C=C/C=C(C)/C=C/C=C(C)/C=C/C2=C(C)CCCC2(C)C)C(C)(C)CCC1` [beta-CAROTENE], 101%. The result for `CC1=CC(=O)[C@H]2C(C)(C)CCC[C@]2(C)[C@@]1(O)CCc1ccoc1` reads 110%; that for `CC(=O)OCC(=O)[C@H]1CC[C@H]2[C@@H]3CC=C4C[C@@H](O)CC[C@]4(C)[C@H]3CC[C@]12C`, 94.9%. `c1ccc(CC2=NCCN2)cc1`: the cell viability came out at 118%. Turning to `NCCCCC(=O)O`, the cell viability was 103%. On to `CC(C)(Oc1ccc(CCNC(=O)c2ccc(Cl)cc2)cc1)C(=O)O`, for which the cell viability was determined as 102%. On to `OCCN1CCN(CCCN2c3ccccc3Sc3ccc(C(F)(F)F)cc32)CC1`, for which the cell viability is 91.3%. With `O=C(O)CCc1nc(-c2ccccc2)c(-c2ccccc2)o1`, the cell viability was 45.5%. The result for `Clc1ccc2c(c1)C(N1CCNCC1)=Nc1ccccc1O2` reads 95.9%; that for `CC(C)[C@@H](C)/C=C/[C@@H](C)[C@H]1CC[C@H]2C3=CC=C4C[C@@H](O)CC[C@]4(C)[C@H]3CC[C@]12C`, 98.1%; that for `O=C(c1cc(Cc2n[nH]c(=O)c3ccccc23)ccc1F)N1CCN(C(=O)C2CC2)CC1` [Olaparib (AZD2281)], 56.5%.

`O=C1c2ccccc2C(=O)C1c1ccccc1`: the cell viability was 107%. As to `CCC(=O)O[C@H]1CC[C@H]2[C@@H]3CCc4cc(O)ccc4[C@H]3CC[C@]12C`, the cell viability turned out to be 95.4%. On to `COc1ccc(-c2coc3cc(O)ccc3c2=O)cc1`, for which the cell viability came out at 108%. As for `CS(=O)(=O)c1ccc(C(=O)Nc2ccc(Cl)c(-c3ccccn3)c2)c(Cl)c1` [Vismodegib (GDC-0449)], the figure is 102%.

Regarding `CC(C)C[C@H](NC(=O)[C@H](Cc1ccccc1)NC(=O)c1cnccn1)B(O)O` [Bortezomib (Velcade)], the cell viability is 0.861%.

`NC(=O)c1ccccc1O`: the cell viability worked out at 102%.

With `CC1(C)CCC(c2ccc(Cl)cc2)=C(CN2CCN(c3ccc(C(=O)NS(=O)(=O)c4ccc(N[C@H](CCN5CCOCC5)CSc5ccccc5)c(S(=O)(=O)C(F)(F)F)c4)cc3)CC2)C1` [ABT-263 (Navitoclax)], the cell viability turned out to be 6.23%. For `O=C(NOCC1CC1)c1ccc(F)c(F)c1Nc1ccc(I)cc1Cl`, the cell viability was 33.2%.

In the case of `Nc1nc(F)nc2c1ncn2[C@@H]1O[C@H](COP(=O)(O)O)[C@@H](O)[C@@H]1O` [Fludarabine Phosphate (Fludara)], the cell viability stood at 44.2%. The result for `CCOC(=O)N1CCC(=C2c3ccc(Cl)cc3CCc3cccnc32)CC1` reads 104%; that for `COC(=O)[C@H](c1ccccc1Cl)N1CCc2sccc2C1`, 101%. As to `C[C@]12CCC(=O)C=C1CC[C@@H]1[C@@H]2C(=O)C[C@@]2(C)[C@H]1CC[C@]2(O)C(=O)CO`, the cell viability was 96.4%. As to `CN(C)[C@@H]1C(O)=C(C(N)=O)C(=O)[C@@]2(O)C(O)=C3C(=O)c4c(O)cccc4[C@@](C)(O)[C@H]3C[C@@H]12`, the cell viability was determined as 97.8%. Take `CC(C)NCC(O)COc1cccc2ccccc12` (racemic): the cell viability is 59.6%. As to `CS(=O)(=O)c1ccc([C@@H](O)[C@@H](CF)NC(=O)C(Cl)Cl)cc1`, the cell viability was 92.8%. The result for `CCN(CC)CCCC(C)Nc1ccnc2cc(Cl)ccc12` (stereo unspecified) reads 103%. As for `CCCCCC1C(=O)CCC1CC(=O)OC` (stereo unspecified), the figure is 107%. Consider `CC(C)c1nc(N(C)S(C)(=O)=O)nc(-c2ccc(F)cc2)c1/C=C/[C@@H](O)C[C@@H](O)CC(=O)O`, for which the cell viability stood at 79%. Consider `C=C(CC)C(=O)c1ccc(OCC(=O)O)c(Cl)c1Cl`, for which the cell viability came to 99.5%.

Turning to `Nc1ccc(S(=O)(=O)NC(=O)c2ccccc2)cc1`, the cell viability stood at 105%. As to `Oc1ccc2c(c1)OC[C@]1(O)Cc3cc(O)c(O)cc3[C@H]21`, the cell viability was determined as 105%. As for `C=C(C)[C@@H]1CC[C@]2(C(=O)O)CC[C@]3(C)[C@H](CC[C@@H]4[C@@]5(C)CC[C@H](O)C(C)(C)[C@@H]5CC[C@]43C)[C@@H]12`, the cell viability was 92.2%. As for `C1N2CN3CN1CN(C2)C3`, the cell viability worked out at 97.5%. In the case of `O=C(O)C1=C[C@@H](O)[C@@H](O)[C@H](O)C1`, the cell viability worked out at 103%. Turning to `c1ccc2c(c1)CCCC2C1=NCCN1` (stereo unspecified), the cell viability was 115%. With `C=CCc1ccc(O)c(OC)c1`, the cell viability was determined as 101%.

For the compound `OC[C@@H](O)[C@@H](O)[C@H](O)[C@H](O)CO`, the cell viability was found to be 103%. Consider `CCn1cc(C(=O)O)c(=O)c2cc(F)c(N3CCNCC3)nc21`, for which the cell viability was found to be 102%. The result for `CCCc1ncc(C[n+]2ccccc2C)c(N)n1` reads 103%; that for `CC(=O)N[C@@H](Cc1c[nH]c2ccccc12)C(=O)O`, 106%. As for `CC(C(=O)O)c1cccc(Oc2ccccc2)c1` (stereo unspecified), the figure is 101%. As for `O=C(O)CN(CCN(CC(=O)O)CC(=O)O)CC(=O)O.[Na+].[Na+].[Na+]`, the figure is 99.6%; as for `COC(=O)C[C@H]1C(C)(C)[C@@H](O)[C@@H]2CC3=C4C=C(OC)O[C@@H](c5ccoc5)[C@]4(C)CCC3[C@@]1(C)C2=O` (stereo partly drawn) [3-DEOXO-3beta-HYDROXYMEXICANOLIDE 16-ENOL ETHER], 100%. Take `O=C1OC(c2ccc(O)cc2)(c2ccc(O)cc2)c2ccccc21`: the cell viability worked out at 110%. Consider `COc1cc(OC)c2c(=O)cc(-c3ccccc3)oc2c1`, for which the cell viability came out at 90.2%.

One may read the cell viability as a read-out of living cells in per cent, often relative to untreated cells.
